PubChem BioAssay AID1053208, Peter MacCallum Cancer Centre – 2014
The deposit covers about 17,000 reagents; shown is a random part of them. Over the whole deposit, 788 (4.7%) are marked active. 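Calls rest on z-score classes alone; an extra cut-off of viability at most 70% of control was not applied to them.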 Not all columns of the deposit are shown.

Purpose: 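Genes whose silencing cuts survival of bone tumour cells only with doxorubicin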 (primary screen)
Cells: mouse osteosarcoma cells, early-passage culture from an engineered mouse model of fibroblastic bone tumour
Reagents: siRNA pool against mouse genes, 40 nM
Timing: about 120 h (48 h before drug, then 72 h with drug)
Conditions: doxorubicin 100 nM for 72 h, roughly 30-40% inhibitory dose
Detection: 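Luminescent ATP signal taken as viability with or without 100 nM doxorubicin for 72 h; mean of two wells set against non-targeting siRNA and turned into robust z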
Reading the numbers: viability z-score with doxorubicin: higher = more viable cells under doxorubicin; viability z-score without drug: higher = more viable cells with knock-down alone
Call rule: 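Called active if knock-down leaves viability unchanged without drug (z within -2 to 2) but lowers it with doxorubicin (z at or under -2)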

Plaat5 (GeneID 66727): combined z-score class = low cell count with doxorubicin only; viability z-score with doxorubicin = -2.7; viability z-score without drug = 0.17; activity call = active
Dsc1 (GeneID 13505): combined z-score class = no change with or without drug; viability z-score with doxorubicin = 1.46; viability z-score without drug = 1.52; activity call = inactive
Surf4 (GeneID 20932): combined z-score class = no change with or without drug; viability z-score with doxorubicin = 0.22; viability z-score without drug = -0.17; activity call = inactive
Itm2b (GeneID 16432): combined z-score class = no change with or without drug; viability z-score with doxorubicin = -1.24; viability z-score without drug = -0.84; activity call = inactive
Dis3 (GeneID 72662): combined z-score class = no change with or without drug; viability z-score with doxorubicin = 0.22; viability z-score without drug = -0.17; activity call = inactive
Mxra8 (GeneID 74761): combined z-score class = high cell count without drug only; viability z-score with doxorubicin = 0.67; viability z-score without drug = 2.7; activity call = inactive
Rgl3 (GeneID 71746): combined z-score class = no change with or without drug; viability z-score with doxorubicin = 0.67; viability z-score without drug = 1.18; activity call = inactive
Eola1 (GeneID 68618): combined z-score class = no change with or without drug; viability z-score with doxorubicin = 0.22; viability z-score without drug = 0.34; activity call = inactive
Lratd2 (GeneID 399603): combined z-score class = no change with or without drug; viability z-score with doxorubicin = 0.67; viability z-score without drug = 1.69; activity call = inactive
Zfp599 (GeneID 235048): combined z-score class = no change with or without drug; viability z-score with doxorubicin = -0.79; viability z-score without drug = -0.84; activity call = inactive
2810449C13RIK: combined z-score class = no change with or without drug; viability z-score with doxorubicin = 0.79; viability z-score without drug = -0.34; activity call = inactive
Gm9758 (GeneID 381714): combined z-score class = no change with or without drug; viability z-score with doxorubicin = 0.45; viability z-score without drug = 1.01; activity call = inactive
Tcerg1l (GeneID 70571): combined z-score class = no change with or without drug; viability z-score with doxorubicin = 0.22; viability z-score without drug = 0.84; activity call = inactive
Nherf4 (GeneID 170761): combined z-score class = no change with or without drug; viability z-score with doxorubicin = 0.22; viability z-score without drug = 0.17; activity call = inactive
Capn8 (GeneID 170725): combined z-score class = no change with or without drug; viability z-score with doxorubicin = -0.45; viability z-score without drug = -0.51; activity call = inactive
Pgf (GeneID 18654): combined z-score class = no change with or without drug; viability z-score with doxorubicin = 1.12; viability z-score without drug = 1.01; activity call = inactive
Cryab (GeneID 12955): combined z-score class = low cell count with doxorubicin only; viability z-score with doxorubicin = -2.47; viability z-score without drug = 0.34; activity call = active
Cmss1 (GeneID 66497): combined z-score class = no change with or without drug; viability z-score with doxorubicin = 1.12; viability z-score without drug = 1.01; activity call = inactive
Opn1sw (GeneID 12057): combined z-score class = no change with or without drug; viability z-score with doxorubicin = 0.67; viability z-score without drug = -1.52; activity call = inactive
Dnajc5b (GeneID 66326): combined z-score class = no change with or without drug; viability z-score with doxorubicin = 0.67; viability z-score without drug = 1.52; activity call = inactive
Arl6ip5 (GeneID 65106): combined z-score class = no change with or without drug; viability z-score with doxorubicin = 0.45; viability z-score without drug = 0; activity call = inactive
Mpc2 (GeneID 70456): combined z-score class = no change with or without drug; viability z-score with doxorubicin = 0.9; viability z-score without drug = 0.17; activity call = inactive
Lrrc57 (GeneID 66606): combined z-score class = no change with or without drug; viability z-score with doxorubicin = 0; viability z-score without drug = -1.35; activity call = inactive
Slc16a1 (GeneID 20501): combined z-score class = no change with or without drug; viability z-score with doxorubicin = 0; viability z-score without drug = 1.52; activity call = inactive
Slc7a12 (GeneID 140918): combined z-score class = low cell count without drug only; viability z-score with doxorubicin = -0.9; viability z-score without drug = -2.7; activity call = inactive
Dpf3 (GeneID 70127): combined z-score class = high cell count with doxorubicin only; viability z-score with doxorubicin = 2.47; viability z-score without drug = -0.17; activity call = inactive
Rcor3 (GeneID 214742): combined z-score class = low cell count with doxorubicin only; viability z-score with doxorubicin = -3.04; viability z-score without drug = -1.18; activity call = active
Pcmtd1 (GeneID 319263): combined z-score class = no change with or without drug; viability z-score with doxorubicin = -0.45; viability z-score without drug = 0.17; activity call = inactive

A stretch taken from the entries so far:
Mxra8 (GeneID 74761): combined z-score class = high cell count without drug only; viability z-score with doxorubicin = 0.67; viability z-score without drug = 2.7; activity call = inactive
Rgl3 (GeneID 71746): combined z-score class = no change with or without drug; viability z-score with doxorubicin = 0.67; viability z-score without drug = 1.18; activity call = inactive
